In PMC11914548:
Results are given in words; binding and its absence hold for the method and conditions named. Binding seen in cells or lysates may run through a third protein. Some binding calls cover weakened binding; strength is not graded here. For some assays here: Tags and fused reporters may be left off the sequences shown. One block for each binder: values may come before it.

Legend:
[1] = target: T1, beaded filament structural protein 1 (BFSP1), endogenous in liver cancer cells (human (endogenous in liver cancer cell lines)) (UniProt Q12934); assay: co-IP; lysate of 5 x 10^6 liver cancer cells, pre-cleared with IgG and protein A/G beads, anti-BFSP1 or anti-TMOD4 overnight at 4 °C, magnetic beads, Western blot
T1 sequence: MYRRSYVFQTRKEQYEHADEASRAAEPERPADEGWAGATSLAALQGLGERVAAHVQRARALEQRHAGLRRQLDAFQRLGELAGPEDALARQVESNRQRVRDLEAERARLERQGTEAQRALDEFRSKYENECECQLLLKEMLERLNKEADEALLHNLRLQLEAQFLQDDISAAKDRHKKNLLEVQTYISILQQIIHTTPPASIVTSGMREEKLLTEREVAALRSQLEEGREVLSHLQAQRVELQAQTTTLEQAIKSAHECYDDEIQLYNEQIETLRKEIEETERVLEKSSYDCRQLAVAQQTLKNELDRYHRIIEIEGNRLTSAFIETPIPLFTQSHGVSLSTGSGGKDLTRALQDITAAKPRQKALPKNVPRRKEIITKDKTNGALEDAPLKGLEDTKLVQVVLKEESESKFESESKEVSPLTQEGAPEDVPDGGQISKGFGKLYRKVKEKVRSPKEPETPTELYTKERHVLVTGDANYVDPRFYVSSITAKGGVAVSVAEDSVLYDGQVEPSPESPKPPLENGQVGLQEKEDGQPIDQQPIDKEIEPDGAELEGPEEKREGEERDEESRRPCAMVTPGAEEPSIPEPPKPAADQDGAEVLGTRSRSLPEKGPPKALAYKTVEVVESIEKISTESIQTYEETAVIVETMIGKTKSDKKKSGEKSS

[2] = target: T2, BFSP1 as used in the GST pull-down (UniProt Q12934); assay: pull-down; GST pull-down; no methods given, GST-tagged partner not stated
T2 sequence: T1 sequence

- binding [1]: binds
B1: tropomodulin 4 (TMOD4), endogenous in liver cancer cells (protein, UniProt Q9NZQ9 1-345)
chain: MSSYQKELEKYRDIDEDEILRTLSPEELEQLDCELQEMDPENMLLPAGLRQRDQTKKSPTGPLDREALLQYLEQQALEVKERDDLVPFTGEKKGKPYIQPKREIPAEEQITLEPELEEALAHATDAEMCDIAAILDMYTLMSNKQYYDALCSGEICNTEGISSVVQPDKYKPVPDEPPNPTNIEEILKRVRSNDKELEEVNLNNIQDIPIPMLSELCEAMKANTYVRSFSLVATRSGDPIANAVADMLRENRSLQSLNIESNFISSTGLMAVLKAVRENATLTELRVDNQRQWPGDAVEMEMATVLEQCPSIVRFGYHFTQQGPRARAAQAMTRNNELRRQQKKR

- binding [2]: binds
B2: TMOD4 as used in the GST pull-down (protein, UniProt Q9NZQ9 1-345)
chain: B1 chain
